Source: PubChem BioAssay AID493027 (The Scripps Research Institute Molecular Screening Center, 2011)
“And” between values parts separate entries of the source, which are not always exact repeats. Equal values may be shown once. Among all 2,000 compounds or so, about 45 (2%) were called active.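 How the source made its calls: active means inhibition above the screen-wide mean inhibition plus 3 SD (cut at about 44% in these data); inactive means the rest.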 Some of the results follow. Where a SMILES comes first, the peptide text is derived from it.

Protein sequences, listed by entry. Tags and fused reporters are not part of them. Lines headed by an entry give the natural chain unless they say otherwise; changes in a name come on top.
UniProt O60240: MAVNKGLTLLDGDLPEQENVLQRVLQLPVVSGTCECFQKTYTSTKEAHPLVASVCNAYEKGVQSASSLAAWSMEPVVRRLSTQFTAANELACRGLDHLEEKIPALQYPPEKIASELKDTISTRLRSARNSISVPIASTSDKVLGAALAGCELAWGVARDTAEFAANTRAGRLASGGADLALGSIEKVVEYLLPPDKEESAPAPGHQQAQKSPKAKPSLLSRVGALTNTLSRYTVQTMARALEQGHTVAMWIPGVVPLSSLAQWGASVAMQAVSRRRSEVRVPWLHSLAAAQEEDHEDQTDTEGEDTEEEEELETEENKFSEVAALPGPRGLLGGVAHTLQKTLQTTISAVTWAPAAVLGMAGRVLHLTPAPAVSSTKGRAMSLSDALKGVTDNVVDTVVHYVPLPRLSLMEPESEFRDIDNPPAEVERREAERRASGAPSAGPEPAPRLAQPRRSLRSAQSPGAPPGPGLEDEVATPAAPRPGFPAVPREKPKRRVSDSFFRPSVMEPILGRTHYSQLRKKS
UniProt Q8WTS1: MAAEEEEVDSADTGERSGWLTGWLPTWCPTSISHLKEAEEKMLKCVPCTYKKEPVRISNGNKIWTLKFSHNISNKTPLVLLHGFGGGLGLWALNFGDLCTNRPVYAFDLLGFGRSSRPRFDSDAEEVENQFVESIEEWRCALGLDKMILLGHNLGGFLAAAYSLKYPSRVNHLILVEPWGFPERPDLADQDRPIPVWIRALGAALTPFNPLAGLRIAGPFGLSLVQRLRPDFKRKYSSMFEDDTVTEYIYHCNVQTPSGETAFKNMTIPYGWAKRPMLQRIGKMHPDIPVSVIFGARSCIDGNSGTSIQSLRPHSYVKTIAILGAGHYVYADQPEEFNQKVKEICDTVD

biological target: Perilipin-1 (Homo sapiens) + 1-acylglycerol-3-phosphate O-acyltransferase ABHD5 (Homo sapiens) (UniProt O60240+Q8WTS1); experiment: ABHD5-PLIN1 interaction inhibitors, pilot screen, cell lysate, split luciferase complementation, luminescence, NIH validation set (AID 493027);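 further: 0% = DMSO wells with the 100% control not disclosed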; settings: split G. princeps luciferase complementation, 4 h, at 7.9 µM, hits give high values

Compound	inhibition
CC(C)[C@@]1(NC(=O)[C@@H]2C[C@@H]3c4cccc5[nH]cc(c45)C[C@H]3N(C)C2)O[C@@]2(O)[C@@H]3CCCN3C(=O)[C@H](Cc3ccccc3)N2C1=O	inactive: 2.77%
CCOc1ccc(C2C(C#N)=C(N)Oc3c2c(=O)oc2ccccc32)cc1 (stereo not given)	inactive: 18%
CC(C)CC12CN3CCN(CC(C3)C1O)C2 (stereo not given)	inactive: -1.84%
CC12CCC3C(CC=C4CC5(CCC43C)OCCO5)C1CCC2=O (stereo not given)	inactive: 1.83%
C[N+]1(C)CCOC(O)(c2ccc(-c3ccc(C4(O)C[N+](C)(C)CCO4)cc3)cc2)C1 (stereo not given)	inactive: -7.75%
Nc1ccncc1	inactive: -6.43%
C[C@]12CCC(=O)C=C1CC[C@@H]1[C@@H]2C(=O)C[C@]2(C)C(=O)CC[C@@H]12	inactive: -8.9%
COc1ccc(C(=O)N2CCCC2=O)cc1	inactive: 0.79%
O=C(O)CCCc1ccc(N(CCCl)CCCl)cc1	inactive: -0.58%
Cc1cc(Cl)ccc1OCC(=O)O	inactive: 3.97%
CN1C(=O)N(C)C(=O)C2(Cc3ccccc3N3CCOCC32)C1=O (stereo not given)	inactive: -5.65%
COc1cc2c3cc1Oc1cc(ccc1O)C[C@@H]1c4c(cc(OC)c(O)c4Oc4ccc(cc4)C[C@H]3N(C)CC2)CCN1C	inactive: 0.1%
NNC(=O)c1ccc(Cl)cc1	inactive: 1.77%
CCNC(=S)N(C)CCc1cc2c(c(OC)c1C=C1C(=O)N(C)C(=O)N(C)C1=O)OCO2	inactive: 8.23%
Clc1ccc(CSC(Cn2ccnc2)c2ccc(Cl)cc2Cl)cc1 (stereo not given)	inactive: 3.48%
CCCC[N+]1(C)[C@@H]2CC(OC(=O)[C@H](CO)c3ccccc3)C[C@H]1[C@@H]1O[C@@H]12 (stereo not given in full)	inactive: -0.83%
CC(CCc1ccccc1)NC(C)C(O)c1ccc(O)cc1 (stereo not given)	inactive: -9.55%
C[C@H](O)[C@H]1CC[C@H]2[C@@H]3CCC4=CC(=O)CC[C@]4(C)[C@H]3CC[C@]12C	inactive: 0.91%
CC(C)C[C@H](NC(=O)[C@@H]1CCCN1C(=O)[C@@H](N)Cc1ccc(O)cc1)C(=O)NCC(N)=O (H-YPLG-NH2)	inactive: -12.4%
O=C1CN=C(c2ccccc2F)c2cc(Cl)ccc2N1	inactive: -9.42%
C[C@]12CC[C@@H](O)C[C@@H]1CC[C@@H]1[C@@H]2CC[C@]2(C)[C@@H](O)CC[C@@H]12	inactive: -2.81%
OC1CCCCC1N1CCC(c2ccccc2)CC1 (stereo not given)	inactive: 1.48%
COc1ccc2c(c1)CC1(CN2C)C(=O)NC(=O)N(CCc2ccccc2)C1=O (stereo not given)	inactive: -15.2%

Compound	inhibition
C[C@H]1CCC/C=C/C2C[C@H](O)CC2[C@H](O)/C=C/C(=O)O1 (stereo not given in full)	inactive: -12.9%
CC(=O)OC1C2CCC1C(N1CCCC1)CC2 (stereo not given)	inactive: -2.68%
CC(Cc1ccccc1)NCC(=O)Nc1cc(N(C)C)nc2ccccc12 (stereo not given)	inactive: 5.78%
C[C@H]1CCCC(=O)CCC/C=C/c2cc(O)cc(O)c2C(=O)O1	inactive: 3.77%
Cc1ccsc1C(=O)C1CCCN(Cc2cc3ccccc3o2)C1 (stereo not given)	inactive: 0.42%
Cc1ccc(-n2c(C)cc(/C=C3/C(=O)NC(=O)N(C)C3=O)c2C)cc1	inactive: 38.2%
CC(C)[N+](C)(CCC(C(N)=O)(c1ccccc1)c1ccccc1)C(C)C	inactive: -6.47%
C#C[C@]1(O)CC[C@H]2[C@@H]3CCC4=CC(=O)CC[C@]4(C)[C@H]3CC[C@@]21C	inactive: -2.67%
O=c1[nH]c2ccccc2n1CCCN1CCC(n2c(=O)[nH]c3cc(Cl)ccc32)CC1	inactive: -3.35%
C[C@@H]1O[C@@H](O[C@H]2C[C@@H](O)[C@]3(CO)[C@H]4[C@H](O)C[C@]5(C)[C@@H](C6COC(=O)C6)CC[C@]5(O)[C@@H]4CC[C@]3(O)C2)[C@H](O)[C@H](O)[C@H]1O (stereo not given in full)	inactive: -9.04%
O=C1CCCC2=C1C(c1cccnc1)Nc1ccccc1N2 (stereo not given)	inactive: -3.96%
CC[C@@H]1C(=O)OC[C@@H]1Cc1cncn1C	inactive: -9.03% and inactive: -8.34%
C#CCN(C)C(C)Cc1ccccc1 (stereo not given)	inactive: -10.3%
CC12CCC3C(CC=C4CC(O)CCC43C)C1C/C(=C\c1cccc(F)c1)C2=O (stereo not given)	inactive: -4.03%
CC12CN3CC(C)(CN(C1)C31CCOCC1)C2=O	inactive: -12.2%
CC12CC[C@H]3[C@@H](CCC4(O)C[C@H](O)CCC34/C=N/NC(=O)Cc3ccccc3)C1(O)CCC2C1=CC(=O)OC1 (stereo not given in full)	inactive: -9.14%
CC[C@]12C=CCN3CCC4(c5cc(Br)c(OC)cc5N(C)C4[C@@](O)(C(=O)OC)[C@@H]1OC(C)=O)C32 (stereo not given in full)	inactive: -6.46%
C[C@]12CC[C@@H](O)C[C@@H]1CC[C@@H]1[C@@H]2CC[C@]2(C)C(=O)CC[C@@H]12	inactive: -5.75%
CCOC(=O)C1=C(C)OC(N)=C(C(=O)OCC)[C@@]12C(=O)N(CC(N)=O)c1ccccc12	inactive: -12.1%
C[N+]1(C)[C@@H]2CC[C@H]1CC(OC(=O)C(CO)c1ccccc1)C2 (stereo not given in full)	inactive: 1.36%
C=C1[C@@H](C)[C@H]2[C@H](Cc3ccccc3)NC(=O)[C@]23OC(=O)/C=C/[C@H](O)CCC[C@@H](C)C/C=C/[C@H]3[C@@H]1O	inactive: -2.63%
CC/C(=C\C=C\[C@@H]1C=C[C@@H]2CCC[C@H]2[C@@H]1C(=O)c1ccc[nH]1)[C@@H]1O[C@@H]([C@@H](C)C(=O)O)CC[C@@H]1C	inactive: 5.93%
CCNC(=O)[C@H]1O[C@@H](n2cnc3c(N)ncnc32)[C@H](O)[C@@H]1O	inactive: 3.39%

Compound	inhibition
CCn1ccnc1CN1CCCC(C(=O)c2cc(F)ccc2OC)C1 (stereo not given)	inactive: -4.97%
Cc1cccc(C)c1NC1=NCCCS1	inactive: -1.75%
NC(=O)CN1CCCC1=O	inactive: -9.43%
Cc1cc(OCc2cc(C(=O)O)oc2C)c2c3c(c(=O)oc2c1)CCCC3	inactive: 3.39%
O=C1NC(=O)C2(Cc3ccccc3N3CCCC32)C(=O)N1c1ccc(Cl)cc1 (stereo not given)	inactive: 7.58%
Cc1nc2ccccc2c(=O)n1-c1ccc(C(=O)O)cc1	inactive: 5.87%
Cc1c2ccncc2c(C)c2c1[nH]c1ccccc12	inactive: -2.7%
COc1cc(/C=C2\C(=O)NC(=O)N(c3ccccc3)C2=O)c([N+](=O)[O-])cc1OC	active: 58.1%
O=C1C(=O)c2ccccc2-c2ccccc21	inactive: 29.2%
CN1C2CCC1CC(OC(=O)CCN1CCCC1)C2 (stereo not given)	inactive: -6.27%
CCOC(=O)C(C)Oc1cc(C)cc2oc(=O)c3c(c12)CCCC3 (stereo not given)	inactive: 3.83%
CN1CC[C@@]23CCCC[C@@H]2[C@@H]1Cc1ccc(O)cc13	inactive: -8.83%
CCC(COC(=O)c1cc(OC)c(OC)c(OC)c1)(c1ccccc1)N(C)C (stereo not given)	inactive: -0.74%
C[N+](C)(C)Cc1ccccc1	inactive: -1.49%
O=c1[nH]c(=S)n(-c2ccccc2)c(O)c1/C=N/N1CCCCC1c1cccnc1 (stereo not given)	inactive: -7.25%
CC1CCC[C@H](O)CCCCCc2cc(O)cc(O)c2C(=O)O1 (stereo not given in full)	inactive: 5.06%
COc1ccc(Cc2nccc3cc(OC)c(OC)cc23)cc1OC	inactive: -9.66%
CN1C2CCC1CC(OC(=O)c1ccc(Cl)cc1)C2 (stereo not given)	inactive: -6.11%
CC(C)(C)NCC(O)c1cc(Cl)c(N)c(Cl)c1 (stereo not given)	inactive: -7.17%
CCOC(=O)c1cc2c(cn1)[nH]c1ccccc12	inactive: -10.8%
COP(=S)(OC)SCN1C(=O)c2ccccc2C1=O	active: 83.3%
C[C@H]1CCC[C@H](O)CCCCCc2cc(O)cc(O)c2C(=O)O1	inactive: -2.04%
COC1=CC(=O)OC(/C=C/c2ccccc2)C1 (stereo not given)	inactive: -1.24%

Compound	inhibition
Clc1ccc(C2NCCc3[nH]cnc32)cc1 (stereo not given)	inactive: 1.77%
CC12CN3CC(C)(CN(C1)C3c1cccs1)C2O (stereo not given)	inactive: -4.71%
CC(C)NC(C)C(=O)c1ccc2ccccc2c1 (stereo not given)	inactive: -0.73%
CCN1CC2(COC(=O)c3ccccc3N)CCC(OC)C34C5CC6C(OC)CC(O)(C5C6OC)C(O)(C(OC)C23)C14 (stereo not given)	inactive: 2.67%
COc1ccc(OC)c([C@@H](O)[C@H](C)NC(C)(C)C)c1	inactive: -2.34%
NCCc1ccc(O)cc1	inactive: 0.45%
C[N+]1(C)CCN(c2ccccc2)CC1	inactive: -0.58%
COc1ccc2c3c([nH]c2c1)C(C)=NCC3	inactive: -5.28%
CC(=O)C1=C(C)OC(N)=C(C(=O)OC(C)C)C12C(=O)Nc1ccccc12 (stereo not given)	inactive: -5.18%
O=S(=O)(c1ccc(F)cc1)N1CCCCC1c1cccnc1 (stereo not given)	inactive: -1.77%
[N-]=[N+]=CC(=O)OC[C@H](N)C(=O)O	inactive: 0.75%
Fc1ccc(C(OCCN2CCCC2)c2ccc(Br)cc2)cc1 (stereo not given)	inactive: 1.09%
CCCC(C)(COC(N)=O)COC(=O)NC(C)C (stereo not given)	inactive: -9.71%
CN1[C@@H]2CC[C@H]1CC(OC(=O)C1C=Nc3ccccc31)C2 (stereo not given in full)	inactive: -2.17%
OC(c1ccccc1)(c1ccccc1)C1CCNCC1	inactive: -12.8%
C[C@]12CCC(=O)C=C1CC[C@@H]1[C@@H]2CC[C@]2(C)C(=O)CC[C@@H]12	inactive: -3.1%
COc1ccc(-c2nc3ccccc3c(=O)o2)cc1	inactive: 1.35%
C[C@H]1OC[C@@H](C[N+](C)(C)C)O1	inactive: -10.9%
Clc1ccc(COC(Cn2ccnc2)c2ccc(Cl)cc2Cl)c(Cl)c1 (stereo not given)	inactive: 4.04%
O=C1CSC2N1CCNC21CCCCC1 (stereo not given)	inactive: -3.04%
COc1ccc(OC)c(C(O)C(C)N)c1 (stereo not given)	inactive: 7.51%

Retrieved by structure from above:
Compound	inhibition
C[N+]1(C)CCN(c2ccccc2)CC1	inactive: -0.58%
[N-]=[N+]=CC(=O)OC[C@H](N)C(=O)O	inactive: 0.75%
C[C@]12CCC(=O)C=C1CC[C@@H]1[C@@H]2CC[C@]2(C)C(=O)CC[C@@H]12	inactive: -3.1%
O=S(=O)(c1ccc(F)cc1)N1CCCCC1c1cccnc1 (stereo not given)	inactive: -1.77%
COc1ccc(-c2nc3ccccc3c(=O)o2)cc1	inactive: 1.35%
